Our source for the binding values is publication PMC7328155.

Chains of the proteins cited; added tags and fusions are not shown. Lines headed by an entry give the natural chain unless they say otherwise; changes in a name come on top.
UniProt Q96CV9: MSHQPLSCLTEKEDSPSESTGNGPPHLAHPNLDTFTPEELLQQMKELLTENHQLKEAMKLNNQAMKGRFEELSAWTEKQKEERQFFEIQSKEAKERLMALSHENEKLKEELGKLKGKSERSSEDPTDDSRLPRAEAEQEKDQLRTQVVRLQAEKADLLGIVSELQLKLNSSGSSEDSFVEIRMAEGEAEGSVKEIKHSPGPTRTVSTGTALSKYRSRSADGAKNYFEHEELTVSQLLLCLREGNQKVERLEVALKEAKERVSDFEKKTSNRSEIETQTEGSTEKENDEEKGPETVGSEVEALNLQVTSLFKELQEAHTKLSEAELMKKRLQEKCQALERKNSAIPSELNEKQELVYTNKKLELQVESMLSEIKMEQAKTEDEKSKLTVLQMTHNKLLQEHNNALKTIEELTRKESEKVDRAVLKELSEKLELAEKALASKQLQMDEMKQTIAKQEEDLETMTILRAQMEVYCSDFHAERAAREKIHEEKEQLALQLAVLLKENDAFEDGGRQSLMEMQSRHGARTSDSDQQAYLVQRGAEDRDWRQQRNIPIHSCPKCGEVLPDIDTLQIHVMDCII
UniProt Q96EP0: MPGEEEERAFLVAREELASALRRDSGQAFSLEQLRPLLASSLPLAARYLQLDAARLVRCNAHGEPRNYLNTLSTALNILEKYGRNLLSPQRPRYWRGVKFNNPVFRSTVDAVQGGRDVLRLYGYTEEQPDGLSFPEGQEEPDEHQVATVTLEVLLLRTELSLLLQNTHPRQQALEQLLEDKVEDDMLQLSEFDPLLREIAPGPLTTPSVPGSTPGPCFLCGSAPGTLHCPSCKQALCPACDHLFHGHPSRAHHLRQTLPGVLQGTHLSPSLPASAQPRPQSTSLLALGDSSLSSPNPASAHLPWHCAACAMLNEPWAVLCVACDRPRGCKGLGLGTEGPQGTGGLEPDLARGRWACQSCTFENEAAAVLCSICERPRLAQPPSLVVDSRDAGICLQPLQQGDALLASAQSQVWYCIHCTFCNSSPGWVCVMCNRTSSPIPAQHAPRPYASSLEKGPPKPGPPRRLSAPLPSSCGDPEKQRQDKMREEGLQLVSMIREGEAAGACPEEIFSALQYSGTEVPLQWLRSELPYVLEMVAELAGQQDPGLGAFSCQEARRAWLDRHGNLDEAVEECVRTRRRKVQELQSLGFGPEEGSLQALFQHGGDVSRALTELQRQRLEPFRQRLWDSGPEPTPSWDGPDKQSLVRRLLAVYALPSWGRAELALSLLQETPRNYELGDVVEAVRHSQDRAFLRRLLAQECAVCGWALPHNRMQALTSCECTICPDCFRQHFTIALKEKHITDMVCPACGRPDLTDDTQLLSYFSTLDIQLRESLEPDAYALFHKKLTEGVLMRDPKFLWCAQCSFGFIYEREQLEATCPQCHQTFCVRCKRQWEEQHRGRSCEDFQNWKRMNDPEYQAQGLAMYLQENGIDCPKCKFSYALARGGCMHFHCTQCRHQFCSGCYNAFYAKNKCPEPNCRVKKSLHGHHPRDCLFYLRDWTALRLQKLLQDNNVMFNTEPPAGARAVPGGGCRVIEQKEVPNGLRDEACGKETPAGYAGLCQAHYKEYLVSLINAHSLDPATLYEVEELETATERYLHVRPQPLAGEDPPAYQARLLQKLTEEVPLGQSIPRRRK

These are yes or no findings as the source states them, for the method shown. Binding seen in cells or lysates may run through a third protein. Some results given as binding are weak or reduced against the parent protein; the word gives no strength.

Among the targets are GFP–OPTN wild-type (UniProt Q96CV9); GFP–OPTN E478G (UniProt Q96CV9); GFP–OPTN E50K (UniProt Q96CV9).
Common to all, as to experiment: co-IP; GFP immunoprecipitation (GFP-nanobody Affi-gel resin, 3 h) from lysates of HEK293T cells transiently co-transfected with GFP–OPTN variants and HA–HOIP; 1% NP-40 lysis buffer (50 mM Tris-HCl pH 7.5, 150 mM NaCl, 1 mM EDTA); blots probed with GFP and HA antibodies

Regarding HA–HOIP (from UniProt Q96EP0 1-1072), the binding result is given as “binds” with GFP–OPTN wild-type, “no binding” with GFP–OPTN E478G and “binds” with GFP–OPTN E50K.
